Data as given in PubChem BioAssay AID1259308 (NCATS, 2017).

Assay: 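Knock-downs that increase output of a recombinant reporter protein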 (primary screen)
Cells: human HEK293 embryonic kidney cells stably expressing firefly luciferase (HEK-CMV-Luc2-Hygro)
Reagents: single siRNA against human genes, 0.8 pmol siRNA per well
Timing: 72 h
Detection: 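Luciferase light (ONE-Glo) measured on one replicate plate set and viability (CellTiter-Glo) on the other, scaled to a negative control siRNA, with robust z-scores and luciferase per cell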
Direction: total luciferase, z-score and total luciferase, % of control: higher = more reporter protein produced; luciferase per cell, z-score: higher = more reporter output per viable cell
Hit rule: 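Active when the median/MAD z-score for overall luciferase is greater than 3; a gene was taken forward for validation with new siRNAs if at least two of its three siRNAs passed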
Calls: active = raised luciferase; inactive = no rise
Here is one part, drawn at random, of about 59,000 deposited reagents. About 1,510 of them (2.6%) count as active. 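Calls use total luciferase alone and ignore viability, so some active siRNAs may act by altering cell number.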 Entries without a mark were called inactive. Reagents against one gene are numbered here. Not all columns of the deposit are shown.

| target gene | siRNA no. | total luciferase, z-score | total luciferase, % of control | luciferase per cell, z-score |
| --- | --- | --- | --- | --- |
| TEDDM1 | 1 | 2.15 | 125 | 1.03 |
| TEDDM1 | 2 | 1.79 | 118 | 1.14 |
| TEDDM1 | 3 | -0.731 | 67.4 | -0.513 |
| IFT27 | 1 | 0.132 | 84.5 | 0.367 |
| IFT27 | 2 | 2.73 | 136 | 2.75 |
| IFT27 | 3 | -0.0936 | 80 | 0.655 |
| SLC25A39 | 1 | 0.165 | 85.2 | -0.0423 |
| SLC25A39 | 2 | 0.87 | 99.2 | 0.55 |
| SLC25A39 | 3 | 1.33 | 108 | 0.327 |
| SLC25A1 | 1 | 0.103 | 83.9 | -0.358 |
| SLC25A1 | 2 | -0.534 | 71.3 | -0.944 |
| SLC25A1 | 3 | -0.18 | 78.3 | -1.11 |
| AK1 | 1 | 1.35 | 109 | 1.56 |
| AK1 | 2 | -0.138 | 79.1 | -0.504 |
| AK1 | 3 | -0.0253 | 81.4 | -0.682 |
| ANXA3 | 1 | -0.821 | 65.6 | -0.921 |
| ANXA3 | 2 | 1.22 | 106 | 0.935 |
| ANXA3 | 3 | -1.06 | 60.8 | 0.0455 |
| NFKBIE | 1 | 0.00967 | 82.1 | 0.119 |
| NFKBIE | 2 | 1.35 | 109 | 1.15 |
| NFKBIE | 3 | 0.264 | 87.1 | 0.041 |

Limited to “total luciferase, % of control” (6 entries from above):
TEDDM1 #2: 118
TEDDM1 #3: 67.4
IFT27 #1: 84.5
IFT27 #2: 136
IFT27 #3: 80
SLC25A39 #1: 85.2

Further results follow:
| target gene | siRNA no. | total luciferase, z-score | total luciferase, % of control | luciferase per cell, z-score |
| --- | --- | --- | --- | --- |
| TOX3 | 1 | -1.38 | 54.5 | -0.874 |
| TOX3 | 2 | -0.822 | 65.5 | -1.43 |
| TOX3 | 3 | 0.918 | 100 | 1.12 |
| TMEM126B | 1 | 0.777 | 97.3 | 0.112 |
| TMEM126B | 2 | 0.68 | 95.4 | 0.577 |
| TMEM126B | 3 | 1.44 | 110 | 1.24 |
| PSMB3 | 1 | -0.227 | 77.4 | 1.12 |
| PSMB3 | 2 | -0.222 | 77.5 | 0.526 |
| PSMB3 | 3 | 0.515 | 92.1 | -0.0619 |
| TSPAN5 | 1 | -0.68 | 68.4 | 0.247 |
| TSPAN5 | 2 | 0.318 | 88.2 | 1.13 |
| TSPAN5 | 3 | -0.949 | 63 | -0.611 |
| MKLN1 | 1 | 0.92 | 100 | 1.53 |
| MKLN1 | 2 | -0.375 | 74.4 | -0.701 |
| MKLN1 | 3 | 0.012 | 82.1 | -0.104 |
| TEX28 | 1 | 0.0618 | 83.1 | 0.185 |
| TEX28 | 2 | -1.26 | 56.8 | -1.31 |
| TEX28 | 3 | 1.11 | 104 | 1.16 |
| PLET1 | 1 | 0.356 | 89 | 0.843 |
| PLET1 | 2 | -1.93 | 43.6 | -2.02 |
| PLET1 | 3 | -1.41 | 53.8 | -1.38 |
| PPFIBP1 | 1 | -0.747 | 67 | -0.0361 |
| PPFIBP1 | 2 | -0.393 | 74.1 | -0.00644 |
| PPFIBP1 | 3 | -0.584 | 70.3 | -0.744 |
| EPDR1 | 1 | 2.38 | 129 | 1.4 |
| EPDR1 | 2 | 0.767 | 97.1 | 0.206 |
| EPDR1 | 3 | -0.613 | 69.7 | -0.949 |
| RPS6KC1 | 1 | 0.837 | 98.5 | 0.972 |
| RPS6KC1 | 2 | 0.161 | 85.1 | -0.417 |
| RPS6KC1 | 3 | 0.747 | 96.8 | -0.0691 |
| GNPDA1 | 1 | 0.304 | 87.9 | 0.18 |
| GNPDA1 | 2 | -2.43 | 33.5 | -0.836 |
| GNPDA1 | 3 | 0.687 | 95.6 | 0.484 |
| LENG8 | 1 | -0.212 | 77.7 | -0.26 |
| LENG8 | 2 | 0.715 | 96.1 | 0.858 |
| LENG8 | 3 | -0.482 | 72.3 | -0.36 |
